## Results of single-concentration screens

The values are deposited in ChEMBL (CHEMBL3988442, “University of Dundee, Small-Polar-MMV Screening Library” (2021)).

The filed quantity is “Percent Effect” (%). The record does not define 0% and 100%; most values in the screen are far below 50% and negative numbers occur (in some assays of this library far below -100). This is an unselected part of the compounds tested. Two or more numbers in one place are separate tests of the same structure; such repeats can differ widely.

Mtb cholesterol medium: 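Phenotypic screen: M. tuberculosis growth, cholesterol and DPPC medium, 4 days; the read-out is not stated. Compounds at 50 µM. Direction is inferred from retests: higher values go with more growth inhibition. Of about 69,000 compounds tested this way, about 370 (0.54%) reached 50% or more in at least one test.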
Mtb glucose medium: 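Phenotypic screen: M. tuberculosis growth, glucose 7H9 medium, 3 days; the read-out is not stated. Tested at 50 µM. Direction is inferred from retests: higher values go with more growth inhibition. Of about 69,000 compounds tested this way, about 760 (1.1%) reached 50% or more in at least one test.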

compound	Mtb cholesterol medium	Mtb glucose medium
CCOc1ccccc1C(=O)N1CCn2c(nnc2C(F)(F)F)C1	-3.135%	1.182% & 2.965%
O=C(O)C(F)(F)F.[H][C@]12C[C@H](C(=O)NCC3CC3)N(C(C)=O)[C@@]1([H])CN(Cc1nccs1)C2	-7.234% & -1.407%	-17.36%
CN(C)c1ncc(CNC(=O)Nc2ccc(C(F)(F)F)cc2)n1C	-35.01%	2.635%
COc1cc2c(cc1OC)CN(C(=O)Cn1nc(C)cc1C)CC2	-19.3%	13.58%
Cl.NC1CCc2nc(-c3ccncc3)nc(Nc3cccc(F)c3)c2C1 (stereo not drawn)	20.66% & 12.76%	44.92%
Cc1n[nH]c(C)c1CCCN(C)c1cc(N(C)C)ncn1	0.5095%	-12.74%
CC(C)(C)OCCN1CCCC1c1nc(Cc2ccc(F)cc2)no1 (stereo not drawn)	-13.64%	8.491% & -2.288%
O=C(O)C(F)(F)F.[H][C@]12CCC[C@@H](CN(C)C)[C@@]1([H])CN(c1cc(OC)ncn1)C2	-16.2%	3.852%
CCC1COC2(CCN(C(=O)c3ccco3)CC2)C1 (stereo not drawn)	44.08% & 33.35%	39.05%
COc1c(C2CCCN2C(=O)c2ccoc2C)c(C)nn1C (stereo not drawn)	-1.426% & -20.39%	-13.48%
Cn1cc(C(=O)NCCc2csc(-c3ccccc3)n2)ccc1=O	-19.94%	-34.32%
O=C(O)C(F)(F)F.O=C(O)C(F)(F)F.[H][C@@]12CNCC[C@]1([H])OC[C@H](C(=O)Nc1cccnc1)C2	-9.621%	-0.09562%
O=S(=O)(Nc1cnn(C2CCOCC2)c1)c1ccc2c(c1)CCO2	-1.727%	29.74%
N#Cc1cccc(CN2CCC3(CC(C(=O)NCC4CC4)=NO3)C2)c1 (stereo not drawn)	11.33%	9.082% & 12.79%
CC1CCN(CC(O)CNc2ccc(Cl)cn2)CC1 (stereo not drawn)	-2.07%	6.269%
CNS(=O)(=O)c1ccc(CNC(=O)Nc2cc(C)on2)s1	-19.28%	-4.328% & 8.434%
Cc1cnn(C2CCCN(C(=O)c3ccc(NC4CC4)nc3)C2)c1 (stereo not drawn)	3.875%	37.99%
CC(C)NC(=O)C1CN(C(=O)Nc2ccc(F)cc2)CC12CCOCC2 (stereo not drawn)	-7.741%	2.518%
Cc1ccc(S(=O)(=O)N(CC(N)=O)CC(C)C)cc1C	-17.04%	-9.85%
Cl.NCc1cc(-c2ccccc2)n2nccc2n1	-2.687%	3.41%
Cc1ccccc1C(NC(=O)CCCS(C)(=O)=O)C(C)(C)C (stereo not drawn)	-10.85%	7.27% & -3.901%
CN(C)c1cc(CNC(=O)c2ccc(=O)[nH]n2)ccn1	-9.624%	1.408%
COc1ccc(NC(C)C(=O)N2CCCC2)cn1 (stereo not drawn)	-16.05%	-63.51% & -22.18%
CCOC(=O)c1nnc2ccccc2c1N1CCN(CC)CC1	11.04%	-13.39% & 6.045%
Cc1c(CNC2CCN(c3ccccc3OC(F)F)C2)cnn1C (stereo not drawn)	8.339% & -1.652%	14.55%
CCC(CNC(=O)c1cncc(Br)c1)N1CCc2ccccc2C1 (stereo not drawn)	-3.217%	13.61% & 15.84%
CC(C)(C)c1nc(CN2CCC(c3ccnn3CCO)CC2)no1	-18.71%	102.5%
Cc1nc(CN2CCC(Oc3ccc(F)cc3C)(C(=O)O)CC2)co1	-0.1899%	20.82% & -5.849%
CCCNC(=O)c1cccc(CNCc2csc(C(C)(C)C)n2)c1	23.94%	14.84%
CC(C)NC(=O)N1CCOC2(CCCN(c3cccc(C#N)c3)C2)C1 (stereo not drawn)	5.099%	-10.89% & 1.077%
CCOC(=O)NCCC(=O)NCc1ccc(Oc2ccc(F)cc2)nc1	-13.34%	8.727% & 10.53%
CN1CCN(C(=O)COCc2nc(-c3ccncc3)no2)CC1	-37.34%	-22.47%
Cc1ccc(Oc2ncccc2CNC2Cc3ccccc3C2)cn1	8.86%	14.68% & -1.326%
COc1ccc(C(=O)NC2CC2)c(OC2CCN(C(C)CO)CC2)c1 (stereo not drawn)	-1.882% & 0.3398%	-1.133%
[H][C@@]12CCN(C[C@@H]1CN(C)c1ccccc1)[C@@H](CNC(=O)c1ccco1)C2	-12.89%	-33.68% & 4.056%
COc1ccc(CNCc2c(C(C)C)nn(C)c2N(C)C)cn1	-3.101%	-11.96%
CN(Cc1cc[nH]n1)C(C(=O)O)c1ccc(Cl)cc1 (stereo not drawn)	-15.22%	-12.81%
Cn1ccnc1CCNS(=O)(=O)Cc1cccc(C#N)c1	16.91%	6.684%
Cl.Nc1nc(C(=O)NCC2CCC3(CCNCC3)CO2)cs1 (stereo not drawn)	17.83%	31.01% & 19.7%
CCN(CCc1nccs1)C(=O)c1sccc1C	-9.908%	16.96%
Cc1n[nH]c(C)c1CC(=O)N1CC[C@@](C)(O)[C@H](Oc2ccccc2)C1	-1.37% & 8.687%	7.316%
CN(C)c1cc(C2CCN(C(=O)c3cnn(C)c3)CC2)ccn1	-6.506% & 1.581%	-22.12%

For reference, 4 entries once more:

{"compound": "Cn1cc(C(=O)NCCc2csc(-c3ccccc3)n2)ccc1=O", "Mtb cholesterol medium": -19.94, "Mtb glucose medium": -34.32}
{"compound": "CC1CCN(CC(O)CNc2ccc(Cl)cn2)CC1", "stereo": "stereo not drawn", "Mtb cholesterol medium": -2.07, "Mtb glucose medium": 6.269}
{"compound": "Cc1ccccc1C(NC(=O)CCCS(C)(=O)=O)C(C)(C)C", "stereo": "stereo not drawn", "Mtb cholesterol medium": -10.85, "Mtb glucose medium": "7.27 & -3.901"}
{"compound": "COc1c(C2CCCN2C(=O)c2ccoc2C)c(C)nn1C", "stereo": "stereo not drawn", "Mtb cholesterol medium": "-1.426 & -20.39", "Mtb glucose medium": -13.48}